# PubChem BioAssay AID1259424 – University of Nebraska Medical Center | 2018
# Assay: 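Rank knockdowns across the genome by resemblance to the KSR1 depletion profile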 (primary screen)
# Cells: human HCT116 colon cancer cells
# Reagents: siRNA pool against human genes, 50 nM
# Measured: 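Log2 levels of six mRNAs (branched-DNA multiplex), adjusted by two reference genes and the non-targeting median, then scored against the average KSR1 knockdown pattern as Pearson r and euclidean distance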
# Scale: mean correlation with KSR1 profile: higher = expression change more like KSR1 knockdown; mean distance from KSR1 profile: higher = expression change less like KSR1 knockdown
# This is one part, drawn at random, of about 14,000 deposited reagents. 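Higher correlation or smaller distance means closer resemblance to KSR1 loss; control wells, including KSR1 knockdowns, recur on many plates.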 Not all columns of the deposit are shown. No sequences are given here. The record does not give: the time to read-out.
gene,mean correlation with KSR1 profile,mean distance from KSR1 profile
ELMOD3 (GeneID 84173),-0.341,3.26
SLC35B1 (GeneID 10237),-0.234,2.59
ICAM3 (GeneID 3385),-0.484,2.5
EHHADH (GeneID 1962),-0.719,1.8
GZMB (GeneID 3002),0.466,1.48
FUBP3 (GeneID 8939),0.849,0.728
SEC24D (GeneID 9871),-0.316,1.66
MRS2 (GeneID 57380),-0.425,1.75
CDC16 (GeneID 8881),-0.113,1.88
RHOU (GeneID 58480),-0.0434,1.88
NDUFB8 (GeneID 4714),0.0826,1.81
GALNT3 (GeneID 2591),0.7,0.832
DNALI1 (GeneID 7802),-0.132,1.64
CSDE1 (GeneID 7812),0.0913,1.34
FABP2 (GeneID 2169),-0.611,1.81
ADPRH (GeneID 141),-0.53,3.67
SLC22A2 (GeneID 6582),-0.425,1.94
NLRP1 (GeneID 22861),-0.692,2.31
NINJ2 (GeneID 4815),0.0983,2.15
SLC26A1 (GeneID 10861),-0.197,2.36

Copied from the list:
For “mean distance from KSR1 profile”, GZMB (GeneID 3002) shows 1.48
FUBP3 (GeneID 8939), mean distance from KSR1 profile → 0.728
